Assay results: PubChem BioAssay AID2685 (National Center for Advancing Translational Sciences (NCATS), 2010)
Some of the results follow. Shown are side measurements of this screen, not its main read-out; they come without a call. Most of these compounds were active or inconclusive in the main read-out, so they are no random draw. Potencies come from curve fits of mixed quality, noted in brackets.

Experiment: qHTS Assay for Lipid Storage Modulators in Drosophila S3 Cells;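 as to cell number change: cells counted by Cell Tracker Red CMTPX staining in the red channel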
Conditions: BODIPY lipid droplet fluorescence, 18-24 h; for cell number change: measured here: cell count max response, cells fed with added oleic acid
From the text: NIH Molecular Libraries Probe Production Centers Network [MLPCN] NIH Chemical Genomics Center [NCGC] MLPCN Grant: 1 R03 MH085686-01 Assay Submitter (PI): Beller, Mathias; Max-Planck-Institut fur Biophysikalische Chemie NCGC Assay Overview: Storing lipids as a reservoir for energy or the anabolism of elementary metabolites is a common feature of probably all cells and is conserved from bacteria to humans. The universal cellular lipid storage organelle is the so-called lipid storage droplet (LD). Although ubiquitous, LDs share a simple structure composed of a hydrophobic core that harbors the storage lipids, which is shielded by a droplet-specific phospholipid monolayer to which proteins are attached. The current model of LD biogenesis involves an incorporation of the lipid core into the membrane leaflets of the endoplasmic reticulum (ER) followed by a subsequent budding-like maturation of a LD, which ultimately pinches off. Once released, LD volume can increase by localized lipogenesis or fusion of existing droplet. Storage lipids are re-mobilized enzymatically by lipase activity. Lipase regulation in the adipocyte is heavily studied and involves multiple components including catecholamine signaling, the LD-associated proteins Perilipin and comparative gene identification (CGI-58) and at least two lipases named hormone sensitive lipase (HSL) and adipocyte triglyceride lipase (ATGL). LD regulation outside of the adipocyte is poorly understood and only few components are known. However, there is an urgent need to learn more about ectopic fat depots as mislocalized storage of lipids, for example in the liver or muscle, is an eminent health problem associated with insulin resistance or the metabolic syndrome. We developed a laser-scanning cytometer assay to enable 1,536-well screening and combined the results of the small molecules screen with an RNAi database based on lipid storage.
Triacsin C (Sigma-Aldrich T-4540), an inhibitor of long-chain fatty acyl CoA synthetase that blocks synthesis of triglycerides, was used as a positive control for lipid under-storage. A total of 23 nL of compound solution of different concentrations were transferred to the assay plates using a Kalypsys pin tool equipped with a 1,536-pin array containing 10-nL slotted pins (FP1S10, 0.457-mm diameter, 50.8 mm long; V&P Scientific). One microliter of oleic acid (400 uM) was added, and the plate was lidded with stainless steel rubber gasket lined lids containing pinholes. […] Fluorescence was detected by excitation of the fluorophores with a 488-nm laser on an Acumen Explorer (TTP Lab Tech). The total intensity in channel 2 (500-530 nm) reflected lipid droplet accumulation. Cells were detected using channel 3 (575-640 nm) with 5-um width and 100-um depth filters. The ratio of the number of objects in PMT channel 2 over the number of objects in PMT channel 3 was also calculated. Percent activity was computed relative to an internal control (100% inhibited lipid droplet deposition due to the presence of 20 uM Triacsin C), which was added to 32 wells/plate.

[1] = measured here: lipid fluorescence (Fed channel) AC50, cells fed with added oleic acid
[2] = measured here: cell number channel AC50, cells fed with added oleic acid

Row | Structure (SMILES) | cell number change [%] | AC50 [1] | AC50 [2]
1 | CCOc1ccc2oc(C(=O)N3CCN(Cc4ccccc4)CC3)c(C)c2c1 | 19 | 29.1 µM [rising, single point] | 
2 | Cc1[nH]c2c(ccc3ccccc32)c1C1C(CCN)C1(C)C (stereo not drawn) | 3.31 | 3.66 µM [falling, partial curve, poor fit] | 
3 | Cc1ccc(S(=O)(=O)n2cc(-c3ccccc3)c(N)n2)cc1 | 31.2 | 6.51 µM [rising, single point] | 5.8 µM [rising, full curve, poor fit]
4 | CCn1c(C)c(C(C)=O)c(N2CCCC2)nc1=S | 1.33 |  | 
5 | CC(C)c1ccc(NC2CCCN(C(=O)c3cccc(N4CCNC4=O)c3)C2)cc1 (stereo not drawn) |  | 6.51 µM [rising, single point] | 
6 | COc1cc(C(=O)N/N=C/c2ccc(OC(=O)c3ccccc3)c(OC)c2)ccc1O | -5.6 | 0.731 µM [rising, partial curve, poor fit] | 
7 | C=CCSc1nnc(-c2ccncc2)n1-c1ccc(OCC)cc1 | 36.7 | 0.13 µM [rising, full curve, poor fit] | 29.1 µM [rising, single point]
8 | CC(C)CCOc1ccc(C(=O)NCC(c2cccs2)N2CCOCC2)cc1 (stereo not drawn) | 0.81 |  | 
9 | Cn1c(SCC(=O)NCc2ccc3c(c2)OCO3)nnc1-c1cc2ccccc2cc1O | -26.1 |  | 
10 | O=C(N/N=C/c1cccs1)c1n[nH]c2c1CCCC2 | -25.5 |  | 0.0731 µM [rising, full curve, poor fit]
11 | Cc1ccc(NCC(=O)Nc2ccc(Br)cc2)cc1C | -26 |  | 
12 | COC(=O)C1=NNC2C(=O)N(c3ccc(C)cc3)C(=O)C12 (stereo not drawn) | 85.7 |  | 20.6 µM [rising, single point]
13 | CC(C)Nc1cc(N2CCCC2)ccc1[N+](=O)[O-] | -7.63 | 0.461 µM [falling, single point] | 
14 | Cc1cc(C)c(C)c(OCCCOc2cccc3cccnc23)c1 | -70.9 | 29.1 µM [falling, single point] | 25.9 µM [falling, partial curve]
15 | O=C(NCc1ccccc1)C1CCCN(c2nc3ccsc3c(=O)s2)C1 (stereo not drawn) | 12.6 | 6.51 µM [rising, single point] | 
16 | COc1cccc(/C=C/C(=O)Nc2ccc3c(c2)OCCO3)c1 | 47.5 | 29.1 µM [rising, single point] | 29.1 µM [rising, single point]
17 | CCn1c(=O)c(=O)[nH]c2cc(C(=O)NC3CC3)ccc21 | -4.32 | 0.146 µM [falling, full curve, poor fit] | 
18 | CCOc1cccc(C2/C(=C(/O)c3ccc4c(c3)CC(C)O4)C(=O)C(=O)N2CCCn2ccnc2)c1 (stereo not drawn) | 25.4 |  | 
19 | O=C(NC1CCCCCC1)c1cc(S(=O)(=O)N2CCOCC2)ccc1F | 16 | 0.58 µM [rising, single point] | 
20 | CSc1nnc(-c2ccncc2)n1/N=C/c1cn(-c2ccccc2)nc1-c1ccc(Cl)cc1 | 2.84 | 0.58 µM [rising, full curve, poor fit] | 
21 | COC(=O)c1cccc(NC(=O)CCCOc2cccc(C)c2)c1 | -15.4 | 3.26 µM [rising, partial curve] | 

Row | Structure (SMILES) | cell number change [%] | AC50 [1] | AC50 [2]
22 | CC(=O)N1CCc2c(sc(NC(=O)C3CCCN3S(=O)(=O)c3cccs3)c2C#N)C1 (stereo not drawn) |  | 2.31 µM [rising, single point] | 
23 | COc1ccc(C2c3c(oc4ccccc4c3=O)C(=O)N2c2ccc(C)cn2)cc1OC (stereo not drawn) | 17.7 | 10.3 µM [rising, partial curve] | 
24 | COC(=O)C(C)Sc1nnc(Cc2cc(=O)[nH]c(=O)[nH]2)n1-c1cccc(OC)c1 (stereo not drawn) | -17.3 |  | 
25 | O=C(CCN1C(=O)c2ccccc2S1(=O)=O)NCc1ccccc1 | 28.5 |  | 
26 | Cc1c(C(=O)Nc2ccc3c(c2)OCCO3)sc2nc(-c3ccccc3)cn12 | -34.9 |  | 16.4 µM [falling, single point]
27 | CCC(=O)Nc1ccc(C(=O)NNC(=O)c2cc(OC)c(OC)c(OC)c2)cc1 | 14 | 23.1 µM [rising, partial curve] | 
28 | CC(C)(C)OC(=O)N1CCOCCOCCN(C(=O)OC(C)(C)C)CCOCCOCC1 |  | 7.31 µM [falling, partial curve, poor fit] | 
29 | CCCNC(=O)c1onc(CSc2cccc(OC)c2)c1C(=O)NCCC | 9.31 | 6.51 µM [rising, single point] | 
30 | Cc1cccc(N2C(=O)C(O)=C(C(=O)c3cccs3)C2c2cccc(Oc3ccccc3)c2)n1 (stereo not drawn) | 33.1 |  | 
31 | CC1=NN(C(=O)CCc2ccccc2)C(O)(c2ccncc2)C1 (stereo not drawn) | 39.2 |  | 3.66 µM [rising, full curve]
32 | Cc1onc(-c2ccccc2Cl)c1C(=O)Nc1ccc(CN2CCCC2)cc1 | 85.7 |  | 29.1 µM [rising, single point]
33 | CCOC(=O)N1CCN(C(=O)COC(=O)CSc2cc(C)c(Br)cc2C)CC1 | 18.3 | 29.1 µM [falling, single point] | 
34 | CCCC1(C(=O)O)NC(c2ccc(OC)cc2O)C2C(=O)N(c3ccc(OC)cc3)C(=O)C21 (stereo not drawn) | 8.15 | 0.326 µM [falling, partial curve, poor fit] | 0.411 µM [falling, single point]
35 | CCc1ccc(C(=O)CSc2nc(C)cc(=O)[nH]2)cc1 | 0.631 |  | 
36 | CCNc1ccc(S(=O)(=O)N2CCCCC2)cn1 | 0.688 | 6.51 µM [rising, single point] | 
37 | COc1ccccc1NC(=O)CSc1n[nH]c(-c2cccnc2)n1 | 18.4 | 29.1 µM [rising, single point] | 
38 | O=C(CNC(=O)c1ccccc1F)OC(C(=O)Nc1cc(C(F)(F)F)ccc1Cl)c1ccccc1 (stereo not drawn) | 1.89 | 0.326 µM [rising, full curve, poor fit] | 
39 | COC(=O)C1(C(F)(F)F)C2C=CC(C2)N1S(=O)(=O)c1ccc(C)cc1 (stereo not drawn) | 17.9 | 5.17 µM [falling, single point] | 
40 | COc1ccc(OC)c(-c2csc(NC(=O)Cc3ccccc3OC)n2)c1 | 26.7 |  | 
41 | O=C(NCc1ccccn1)C(=O)NCC(c1ccco1)N1CCOCC1 (stereo not drawn) | -47.8 | 0.92 µM [falling, full curve, poor fit] | 0.092 µM [falling, full curve, poor fit]
42 | NC(=O)NC(CC(=O)N1CCc2ccccc2C1)c1ccc(Cl)cc1 (stereo not drawn) | 1.61 | 9.2 µM [falling, partial curve] | 

Fetched by compound from the entries so far (three):
Row | Structure (SMILES) | cell number change [%] | AC50 [1] | AC50 [2]
36 | CCNc1ccc(S(=O)(=O)N2CCCCC2)cn1 | 0.688 | 6.51 µM [rising, single point] | 
24 | COC(=O)C(C)Sc1nnc(Cc2cc(=O)[nH]c(=O)[nH]2)n1-c1cccc(OC)c1 (stereo not drawn) | -17.3 |  | 
25 | O=C(CCN1C(=O)c2ccccc2S1(=O)=O)NCc1ccccc1 | 28.5 |  | 

Arranged by formula weight (descending): 3 of the compounds above.
Row | Structure (SMILES) | cell number change [%] | AC50 [1] | AC50 [2]
33 | CCOC(=O)N1CCN(C(=O)COC(=O)CSc2cc(C)c(Br)cc2C)CC1 | 18.3 | 29.1 µM [falling, single point] | 
25 | O=C(CCN1C(=O)c2ccccc2S1(=O)=O)NCc1ccccc1 | 28.5 |  | 
36 | CCNc1ccc(S(=O)(=O)N2CCCCC2)cn1 | 0.688 | 6.51 µM [rising, single point] | 

Further entries follow:

Row | Structure (SMILES) | cell number change [%] | AC50 [1] | AC50 [2]
43 | CCN1CCN(C(=S)Nc2ccc([N+](=O)[O-])cc2)CC1 |  | 0.651 µM [falling, full curve, poor fit] | 
44 | CC1CC(=O)c2cnc(Nc3ccccc3)nc2C1 (stereo not drawn) | -1.84 | 29.1 µM [rising, single point] | 
45 | C=CCn1c(=S)[nH]c2cc(C(=O)N3CCN(c4ccccc4OC)CC3)ccc2c1=O | -7.72 |  | 
46 | c1ccc(CCNc2nc(-c3ccccn3)nc3ccccc23)cc1 | -68.8 | 16.4 µM [falling, partial curve] | 16.4 µM [falling, single point]
47 | Cc1ccc(S(=O)(=O)N(C)C)cc1NC(=O)c1sccc1Cl | 16.6 | 2.06 µM [rising, partial curve, poor fit] | 
48 | CCOC(=O)c1cnc2cc(-c3ccc(Br)cc3)nn2c1C | 23 | 1.84 µM [rising, partial curve, poor fit] | 
49 | CSC1=NCCN1C(=O)C12CC3CC(CC(C3)C1)C2 |  | 2.31 µM [falling, full curve] | 
50 | COc1ccc(CCNC(=O)CO/N=C/c2cc3c(cc2Br)OCO3)cc1OC | -5.19 | 0.13 µM [falling, full curve, poor fit] | 
51 | Cc1cccc(C(=O)Nc2cccc(C(=O)N/N=C/c3ccc4c(c3)OCO4)c2)c1 | -7.14 |  | 
52 | Cc1cc(C(=O)O)sc1C | -4.02 |  | 
53 | COc1ccc(C(=O)NNS(=O)(=O)c2ccccc2)cc1OC | 17.9 | 29.1 µM [rising, single point] | 
54 | CCCC(=O)NC(=S)Nc1ccccc1N1CCOCC1 | 7.21 | 29.1 µM [falling, single point] | 6.51 µM [rising, single point]
55 | COCCN(C(=O)CNC(=O)c1ccco1)C(C(=O)NC1CCCC1)c1ccc(F)cc1 (stereo not drawn) | 6.67 |  | 0.0517 µM [rising, full curve]
56 | O=C(O)c1cc(N2C(=O)C3C4C=CC(C4)C3C2=O)ccc1NCc1cccnc1 (stereo not drawn) |  |  | 0.731 µM [falling, single point]
57 | CC(C)[C@H](NC(=O)[C@H](Cc1ccccc1)n1c(=O)[nH]c2ccccc2c1=O)C(=O)N1CCC[C@@H]1C(=O)O | 1.94 |  | 
58 | CCOC(=O)N1CCN(C(=O)COC(=O)c2ccc(S(=O)(=O)N(CC)CC)cc2)CC1 | -0.628 | 0.164 µM [falling, full curve] | 0.184 µM [falling, full curve, poor fit]
59 | CCCn1c(/N=C/c2c[nH]c3ccccc23)nc2ccccc21 | -35.5 | 5.17 µM [rising, partial curve] | 
60 | CN(C)/C=C(\C#N)C(=O)N/N=C/c1ccc(F)cc1 | 20.2 | 1.16 µM [rising, full curve, poor fit] | 0.731 µM [rising, full curve, poor fit]
61 | COc1ccccc1NC(=O)Cn1cc(C#N)c2ccccc21 |  | 2.06 µM [rising, partial curve] | 
62 | COc1ccc(-n2c(SCC(=O)N3CCN(c4ccccc4)CC3)nc3c(c2=O)SCC3)cc1 | -2.81 | 0.517 µM [rising, full curve] | 
